According to patent publication US20240038331A1:
Residue numbers refer to the chain shown, from its start. No constants are given. Whether binding was seen depends on the method and setting. For part of these data: In cells and extracts the contact can be indirect. Some entries that bind do so weakly or less than the wild type. Tags and fused reporters may be left off the sequences shown. Blank lines part the entries; values can stand above or below the binder they belong to.

What was measured:
[1] = target: T1, T33-21B, C-terminally A1-tagged; test: native PAGE of cleared lysates, initial screen of co-expressed (A1-tagged) constructs
T1 sequence: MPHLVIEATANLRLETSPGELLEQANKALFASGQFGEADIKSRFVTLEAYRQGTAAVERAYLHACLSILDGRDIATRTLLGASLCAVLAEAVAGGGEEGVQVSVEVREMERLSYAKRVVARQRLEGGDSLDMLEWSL

[2] = target: T2, T33-21B, C-terminally His-tagged; test: nickel affinity co-purification (His tag on one subunit only) and SEC, co-expressed in E. coli
T2 sequence: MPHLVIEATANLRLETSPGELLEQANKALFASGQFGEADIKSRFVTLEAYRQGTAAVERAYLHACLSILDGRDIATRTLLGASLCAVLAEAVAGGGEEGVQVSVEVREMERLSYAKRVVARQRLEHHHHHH

[3] = target: T2, T33-21B, C-terminally His-tagged; test: analytical SEC, FIG. 5A
[4] = target: T2, T33-21B, C-terminally His-tagged; test: negative stain electron microscopy of purified co-expressed material, FIG. 6A
[5] = target: T2, T33-21B, C-terminally His-tagged; test: X-ray crystal structures of the assembled cage, PDB 4NWP (R32) and 4NWQ (F4132)
[6] = target: T3, T33-15B, C-terminally His-tagged; test: SEC after mixing the two purified components in a 1:1 molar ratio, two hours at room temperature
T3 sequence: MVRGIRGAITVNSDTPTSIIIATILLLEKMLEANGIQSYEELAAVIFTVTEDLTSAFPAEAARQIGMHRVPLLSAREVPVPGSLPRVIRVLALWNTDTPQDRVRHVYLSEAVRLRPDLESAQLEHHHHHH

[7] = target: T3, T33-15B, C-terminally His-tagged; test: negative stain electron microscopy of the unpurified mixture of independently purified components, FIG. 6B
[8] = target: T3, T33-15B, C-terminally His-tagged; test: native PAGE after mixing cleared lysates of separately expressed His-tagged components
[9] = target: T3, T33-15B, C-terminally His-tagged; test: native PAGE after mixing crude lysates of separately expressed His-tagged components, two hours at room temperature
[10] = target: T3, T33-15B, C-terminally His-tagged; test: native PAGE after in vitro mixing of cell lysates
[11] = target: T3, T33-15B, C-terminally His-tagged; test: analytical SEC after mixing purified His-tagged components 1:1, each at 50 µM subunit, two hours at room temperature, 5% glycerol
[12] = target: T3, T33-15B, C-terminally His-tagged; test: native PAGE after in vitro mixing of crude lysates of separately expressed components; more efficient assembly with adjusted volumes (lane 8), FIG. 5B
[13] = target: T4, T33-28B, C-terminally His-tagged; test: X-ray crystal structure of the assembled cage, PDB 4NWR, 3.5 A
T4 sequence: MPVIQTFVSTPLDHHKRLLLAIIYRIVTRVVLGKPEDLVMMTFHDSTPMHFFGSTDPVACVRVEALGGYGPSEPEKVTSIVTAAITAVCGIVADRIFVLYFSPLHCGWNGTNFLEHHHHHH

[14] = target: T5, T33-28B, C-terminally A1-tagged; test: native PAGE of cleared lysates, initial screen of co-expressed (A1-tagged) constructs
T5 sequence: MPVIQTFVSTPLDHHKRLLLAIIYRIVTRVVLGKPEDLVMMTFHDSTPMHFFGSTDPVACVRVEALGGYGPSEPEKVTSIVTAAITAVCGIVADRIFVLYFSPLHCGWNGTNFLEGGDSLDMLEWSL

[15] = target: T4, T33-28B, C-terminally His-tagged; test: nickel affinity co-purification (His tag on one subunit only) and SEC, co-expressed in E. coli
[16] = target: T4, T33-28B, C-terminally His-tagged; test: analytical SEC, FIG. 5A
[17] = target: T4, T33-28B, C-terminally His-tagged; test: negative stain electron microscopy of purified co-expressed material, FIG. 6A
[18] = target: T6, T33-15B, C-terminally A1-tagged; test: native PAGE of cell lysate, A1-tagged co-expression construct (lane 5), FIG. 5B
T6 sequence: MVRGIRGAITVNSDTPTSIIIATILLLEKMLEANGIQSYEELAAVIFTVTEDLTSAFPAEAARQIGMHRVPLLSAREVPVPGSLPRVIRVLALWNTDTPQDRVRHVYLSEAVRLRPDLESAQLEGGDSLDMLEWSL

[19] = target: T3, T33-15B, C-terminally His-tagged; test: X-ray crystal structure of the assembled cage, PDB 4NWO, 2.8 A
[20] = target: T6, T33-15B, C-terminally A1-tagged; test: native PAGE of cleared lysates, initial screen of co-expressed (A1-tagged) constructs
[21] = target: T3, T33-15B, C-terminally His-tagged; test: nickel affinity co-purification (His tag on one subunit only) and SEC, co-expressed in E. coli
[22] = target: T3, T33-15B, C-terminally His-tagged; test: analytical SEC, FIG. 5A
[23] = target: T3, T33-15B, C-terminally His-tagged; test: negative stain electron microscopy of purified co-expressed material, FIG. 6A
[24] = target: T3, T33-15B, C-terminally His-tagged; test: native PAGE of cell lysate, His-tagged co-expression construct (lane 6), FIG. 5B
[25] = target: T7, T33-09B, C-terminally A1-tagged; test: native PAGE of cleared lysates, initial screen of co-expressed (A1-tagged) constructs
T7 sequence: T6 sequence with N12E, S13E, T17A, S18A, I20L, I21A, L25E, E28L, Q64L, S109N

[26] = target: T8, T33-09B, C-terminally His-tagged; test: nickel affinity co-purification (His tag on one subunit only) and SEC, co-expressed in E. coli
T8 sequence: T3 sequence with N12E, S13E, T17A, S18A, I20L, I21A, L25E, E28L, Q64L, S109N

[27] = target: T8, T33-09B, C-terminally His-tagged; test: analytical SEC, FIG. 5A
[28] = target: T7, T33-09B, C-terminally A1-tagged; test: native PAGE of cleared lysate
[29] = target: T8, T33-09B, C-terminally His-tagged; test: negative stain electron microscopy of purified co-expressed material, FIG. 6A
[30] = target: T8, T33-09B, C-terminally His-tagged; test: SEC and electron microscopy; no visible band on native PAGE, which the filing puts down to a concentration below the detection limit

binding [6]: binds | binding [7]: binds | binding [8]: binds | binding [9]: binds | binding [10]: binds | binding [11]: binds | binding [12]: binds
B2: T33-15A, C-terminally His-tagged (designed binder)
chain: MSKAKIGIVTVSDRASAGITADISGKAIILALNLYLTSEWEPIYQVIPDEQDVIETTLIKMADEQDCCLIVTTGGTGPAKRDVTPEATEAVCDRMMPGFGELMRAESLKEVPTAILSRQTAGLRGDSLIVNLPGDPASISDCLLAVFPAIPYCIDLMEGPYLECNEAMIKPFRPKAKLEHHHHHH

binding [18]: binds | binding [19]: binds | binding [20]: binds | binding [21]: binds | binding [22]: binds | binding [23]: binds | binding [24]: binds
B4: T33-15A (designed binder)
chain: MSKAKIGIVTVSDRASAGITADISGKAIILALNLYLTSEWEPIYQVIPDEQDVIETTLIKMADEQDCCLIVTTGGTGPAKRDVTPEATEAVCDRMMPGFGELMRAESLKEVPTAILSRQTAGLRGDSLIVNLPGDPASISDCLLAVFPAIPYCIDLMEGPYLECNEAMIKPFRPKAK

Continued, binder first:

B1: T33-21A (designed binder)
chain: MRITTKVGDKGSTRLFGGEEVWKDSPIIEANGTLDELTSFIGEAKHYVDEEMKGILEEIQNDIYKIMGEIGSKGKIEGISEERIAWLLKLILRYMEMVNLKSFVLPGGTLESAKLDVCRTIARRALRKVLTVTREFGIGAEAAAYLLALSDLLFLLARVIEIEKNKLKEVRS
binding [1]: binds | binding [2]: binds | binding [3]: binds | binding [4]: binds | binding [5]: binds

B3: T33-28A (designed binder)
chain: MESVNTSFLSPSLVTIRDFDNGQFAVLRIGRTGFPADKGDIDLCLDKMIGVRAAQIFLGDDTEDGFKGPHIRIRCVDIDDKHTYNAMVYVDLIVGTGASEVERETAEEEAKLALRVALQVDIADEHSCVTQFEMKLREELLSSDSFHPDKDEYYKDFL
binding [13]: binds | binding [14]: binds | binding [15]: binds | binding [16]: binds | binding [17]: binds

B5: T33-09A (designed binder)
chain: MEEVVLITVPSALVAVKIAHALVEERLAACVNIVPGLTSIYRWQGSVVSDHELLLLVKTTTHAFPKLKERVKALHPYTVPEIVALPIAEGNREYLDWLRENTG
binding [25]: binds | binding [26]: binds | binding [27]: binds | binding [28]: binds | binding [29]: binds | binding [30]: binds
